These results are taken from the supplement of paper PMC12889115.

This assay concerns Salmonella enterica serovar Typhimurium SL1344. Put plainly: bacterial growth OD600 after 18 h with compound and polymyxin B; higher = more bacterial growth (less inhibition). To be noted: 50 µM, Mueller-Hinton broth.

The other results are listed elsewhere or left out. These are raw signals, not scaled to a control.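 Primary screen: polymyxin B was added at a level permeabilizing Salmonella outer membranes while sparing inner membranes. DMSO wells, both with and without polymyxin B, established maximum growth. Plate-to-plate variation meant each plate was ranked on its own, and the lowest-OD600 compounds were selected as hits.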

`COc1ccc(-n2cc(CNCC3CC(=O)N(C4CC4)C3)c(-c3ccccc3Cl)n2)cc1` (stereo not given): for the setting “polymyxin B 1 µg/mL”, the “bacterial growth OD600” value was 0.917.
For the molecule `c1ccc(COC2CCCN(c3nc4nonc4nc3N3CCCC3)C2)nc1` (stereo not given), under “polymyxin B 0.75 µg/mL”, the “bacterial growth OD600” value turned out to be 0.778.
In the case of `CCN(CC1CCCN(CCc2cccc(F)c2)C1)C(=O)c1ccnc(Cl)c1` (stereo not given), for the setting “polymyxin B 1 µg/mL”, the “bacterial growth OD600” value amounted to 0.987.
Turning to `COCCc1nc2ccc(C(=O)N3CCN(c4nc(C)cnc4C)CC3)cc2o1`, where the note is “polymyxin B 1 µg/mL”, the “bacterial growth OD600” value came to 1.
`Cc1cc(C(=O)N(C)CC2CCCN(CCc3ccccc3F)C2)nn1C` (stereo not given): the “bacterial growth OD600” value (polymyxin B 1 µg/mL) turned out to be 0.945.
For the molecule `COc1cccc(C(=O)N2CCC(C3(Cc4ccc(F)cc4)NC(=O)N(C4CCOC4)C3=O)CC2)c1` (stereo not given), where the note is “polymyxin B 0.75 µg/mL”, the “bacterial growth OD600” value was 0.866.
Turning to `COc1ccc(OC)c(CN2CCOc3ccc(C(C)(O)COc4ccccc4)cc3C2)c1` (stereo not given), the “bacterial growth OD600” value (polymyxin B 0.75 µg/mL) is 0.51.
Same read-out and setting: the figure for `COc1ccccc1C1(CC(=O)N2CCCC2c2ccc(F)cc2)CC(=O)N(C2CCCC2)C1=O` (stereo not given) is -0.003; for `CC(CNCc1cc(NS(C)(=O)=O)cc(C(=O)N2CCCCC2)c1)Cc1ccc2c(c1)OCO2` (stereo not given) it is 0.805; for `Cc1ncoc1C(=O)N1CCCC(CCc2cccc(F)c2)C1` (stereo not given) it is 0.366.
With `Cc1nc2cc(NC(=O)C3CC34CCN(C(=O)c3ccc(-n5ccnc5)cc3)CC4)ccc2s1` (stereo not given), the “bacterial growth OD600” value (polymyxin B 0.75 µg/mL) came to 0.826.
For the molecule `Cc1cc(C)n(-c2cccc(CN(C)C(=O)C3CCC(=O)N(Cc4ccccn4)C3)c2)n1` (stereo not given), the “bacterial growth OD600” value (polymyxin B 1 µg/mL) came out at 1.31.
As for `C#CCN(CC=C)Cc1c[nH]nc1-c1ccc2cc(OC)ccc2c1`, under “polymyxin B 1 µg/mL”, the “bacterial growth OD600” value came out at 0.04.
Same read-out and setting: the figure for `O=C(NCCc1cscn1)c1cc(COc2ccccc2)[nH]n1` is 1.17.
On to `CC(C)c1c(C(=O)N2CCN(Cc3ccccc3)CC2)cnn1-c1nccc(-c2cccs2)n1`, for which, where the note is “polymyxin B 0.75 µg/mL”, the “bacterial growth OD600” value is 0.857.
On to `CCN1CCCC1CNC(=O)CCC1CCN(Cc2c(OC)ccc3ccccc23)CC1` (stereo not given), for which the “bacterial growth OD600” value (polymyxin B 1 µg/mL) was found to be 1.1.
Regarding `O=C(NCCN1Cc2ccccc2OC(c2ccccc2)C1)C1=CCCC1` (stereo not given), the “bacterial growth OD600” value (polymyxin B 0.75 µg/mL) was 0.603.
As for `CC1(C)C[C@@H]2C[C@@](C)(CN2C(=O)c2cc(COc3ccc(-n4cncn4)cc3)on2)C1`, the “bacterial growth OD600” value (polymyxin B 1 µg/mL) came to 0.009.
On the same count and under the same terms, the figure for `COC(=O)c1ccc(CNc2nncc(-c3c(OC)cccc3OC)n2)cc1` is 0.785; for `CCN(C)c1ccc(C(=O)N2CCCCC2CCn2cccn2)cn1` (stereo not given) it is 0.531.
